Results are given in words; binding and its absence hold for the method and conditions named.
Biological target: T1, biotinylated Avi-UPF2-MIF4GIII (UniProt Q9HAU5 761-1054, biotin on the Avi tag (BirA))
T1 construct: UPF2, third middle-domain of eukaryotic initiation factor 4G (MIF4GIII), residues 761-1054; Avi tag added by site-directed mutagenesis to UPF2-MIF4GIII; also called immobilized UPF2-MIF4GIII; source: E. coli BL21 Rosetta2(DE3), purified (Ni-NTA, TEV, reverse IMAC, ion exchange); biotinylated with BirA, SEC
T1 sequence (looked up): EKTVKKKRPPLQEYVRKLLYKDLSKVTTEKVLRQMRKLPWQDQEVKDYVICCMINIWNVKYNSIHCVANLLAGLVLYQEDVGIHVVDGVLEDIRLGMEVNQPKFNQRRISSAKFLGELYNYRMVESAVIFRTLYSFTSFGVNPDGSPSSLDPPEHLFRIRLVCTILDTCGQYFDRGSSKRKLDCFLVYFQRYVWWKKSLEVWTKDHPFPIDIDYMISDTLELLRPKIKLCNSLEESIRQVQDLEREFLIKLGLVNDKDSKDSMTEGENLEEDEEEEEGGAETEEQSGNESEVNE
Assay: SPR; 350 RU biotinylated Avi-UPF2-MIF4GIII immobilised on an SA chip (Biacore T200); UPF3B and UPF3A constructs injected; 15°C; 300 mM NaCl, 25 mM HEPES pH 7.4, 0.25 mM TCEP, 0.05% Tween-20; global fit, 1:1 binding model; both purified

B1: UPF3A-58–173-Iso2 (domain or fragment, UniProt Q9H1J1-2 58-173)
chain: KPREEKRTALSKVVIRRLPPGLTKEQLEEQLRPLPAHDYFEFFAADLSLYPHLYSRAYINFRNPDDILLFRDRFDGYIFLDSKDPEYKKFLETYCVEEEKTSANPETLLGEMEAKT
In the case of B1, the binding is reported as “no binding”.
